# Laboratory results taken from the supplement of paper PMC12819154, “High-throughput peptide-centric local stability assay extends protein–ligand identification to membrane proteins, tissues and bacteria” (Nature Structural & Molecular Biology, 2025).
# By UniProt entry, the sequences of proteins in these tests, tags left out. Where a name states a change or a piece, a line headed by the entry shows the natural chain unless it says otherwise.
# UniProt P39829: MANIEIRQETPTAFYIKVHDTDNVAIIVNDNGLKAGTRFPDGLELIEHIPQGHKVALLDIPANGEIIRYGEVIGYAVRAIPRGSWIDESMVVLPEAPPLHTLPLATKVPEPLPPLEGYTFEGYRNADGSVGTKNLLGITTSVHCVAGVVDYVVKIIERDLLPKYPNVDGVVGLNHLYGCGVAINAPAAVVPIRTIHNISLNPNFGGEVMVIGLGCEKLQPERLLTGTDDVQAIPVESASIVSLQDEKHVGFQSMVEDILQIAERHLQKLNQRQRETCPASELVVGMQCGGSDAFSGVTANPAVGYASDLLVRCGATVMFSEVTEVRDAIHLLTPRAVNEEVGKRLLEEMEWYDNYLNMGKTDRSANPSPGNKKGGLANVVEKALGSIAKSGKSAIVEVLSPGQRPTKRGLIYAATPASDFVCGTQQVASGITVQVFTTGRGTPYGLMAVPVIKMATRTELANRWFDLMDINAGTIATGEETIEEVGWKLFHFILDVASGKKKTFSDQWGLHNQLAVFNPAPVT
# UniProt P37744: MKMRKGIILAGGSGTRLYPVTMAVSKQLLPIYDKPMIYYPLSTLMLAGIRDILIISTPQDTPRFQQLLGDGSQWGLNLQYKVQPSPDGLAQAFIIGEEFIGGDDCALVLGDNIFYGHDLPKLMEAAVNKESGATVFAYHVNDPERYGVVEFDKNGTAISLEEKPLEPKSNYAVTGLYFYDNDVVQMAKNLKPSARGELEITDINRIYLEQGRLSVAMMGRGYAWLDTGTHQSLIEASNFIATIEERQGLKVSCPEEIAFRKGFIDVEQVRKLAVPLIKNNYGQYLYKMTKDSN
# UniProt P37631: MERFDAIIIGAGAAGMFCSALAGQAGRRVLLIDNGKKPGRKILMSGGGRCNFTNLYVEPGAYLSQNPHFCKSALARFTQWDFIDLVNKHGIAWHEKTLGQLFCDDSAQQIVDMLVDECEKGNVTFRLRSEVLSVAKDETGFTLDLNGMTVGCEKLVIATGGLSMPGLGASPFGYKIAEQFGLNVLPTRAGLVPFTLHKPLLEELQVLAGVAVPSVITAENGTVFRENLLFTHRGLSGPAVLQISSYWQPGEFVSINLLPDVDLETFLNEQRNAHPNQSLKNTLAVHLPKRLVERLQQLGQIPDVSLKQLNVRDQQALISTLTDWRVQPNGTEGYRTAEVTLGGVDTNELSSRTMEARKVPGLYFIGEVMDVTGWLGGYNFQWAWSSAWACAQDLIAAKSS
# UniProt P38521: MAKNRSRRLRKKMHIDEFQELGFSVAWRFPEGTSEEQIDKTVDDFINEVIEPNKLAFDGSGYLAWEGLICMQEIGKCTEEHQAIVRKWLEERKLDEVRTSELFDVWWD
# UniProt P37095: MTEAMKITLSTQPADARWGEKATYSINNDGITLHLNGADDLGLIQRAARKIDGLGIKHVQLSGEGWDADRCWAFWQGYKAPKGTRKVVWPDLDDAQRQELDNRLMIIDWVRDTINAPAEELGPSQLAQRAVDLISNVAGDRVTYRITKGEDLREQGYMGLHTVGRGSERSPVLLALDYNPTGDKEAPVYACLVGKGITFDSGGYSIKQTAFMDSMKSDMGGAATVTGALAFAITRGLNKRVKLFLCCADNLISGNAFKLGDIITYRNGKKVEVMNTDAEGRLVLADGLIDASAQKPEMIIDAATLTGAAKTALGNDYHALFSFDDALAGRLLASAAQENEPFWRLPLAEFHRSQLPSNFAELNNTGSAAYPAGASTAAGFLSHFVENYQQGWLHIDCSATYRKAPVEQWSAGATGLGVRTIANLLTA
# UniProt P39274: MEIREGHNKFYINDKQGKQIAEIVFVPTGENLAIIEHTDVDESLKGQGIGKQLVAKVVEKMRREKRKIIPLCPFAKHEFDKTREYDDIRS
# UniProt P39208: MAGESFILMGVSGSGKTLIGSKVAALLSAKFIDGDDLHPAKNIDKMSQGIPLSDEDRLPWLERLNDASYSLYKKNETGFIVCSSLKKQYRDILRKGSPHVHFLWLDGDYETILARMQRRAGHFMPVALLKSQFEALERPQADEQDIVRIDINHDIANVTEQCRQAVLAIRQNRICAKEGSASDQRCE
# UniProt P45523: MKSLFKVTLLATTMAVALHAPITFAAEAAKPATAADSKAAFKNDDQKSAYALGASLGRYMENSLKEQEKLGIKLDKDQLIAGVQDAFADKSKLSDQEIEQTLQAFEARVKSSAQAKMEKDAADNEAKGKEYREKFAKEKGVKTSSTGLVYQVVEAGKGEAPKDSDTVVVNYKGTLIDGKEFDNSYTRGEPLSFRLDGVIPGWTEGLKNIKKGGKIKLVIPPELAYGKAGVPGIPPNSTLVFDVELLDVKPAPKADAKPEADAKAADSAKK
# UniProt P39337: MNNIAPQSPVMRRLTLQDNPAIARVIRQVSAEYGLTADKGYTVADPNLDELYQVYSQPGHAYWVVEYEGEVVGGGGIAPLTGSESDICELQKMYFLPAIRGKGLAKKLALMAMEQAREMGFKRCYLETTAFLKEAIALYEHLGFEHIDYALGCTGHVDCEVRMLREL
# UniProt P37747: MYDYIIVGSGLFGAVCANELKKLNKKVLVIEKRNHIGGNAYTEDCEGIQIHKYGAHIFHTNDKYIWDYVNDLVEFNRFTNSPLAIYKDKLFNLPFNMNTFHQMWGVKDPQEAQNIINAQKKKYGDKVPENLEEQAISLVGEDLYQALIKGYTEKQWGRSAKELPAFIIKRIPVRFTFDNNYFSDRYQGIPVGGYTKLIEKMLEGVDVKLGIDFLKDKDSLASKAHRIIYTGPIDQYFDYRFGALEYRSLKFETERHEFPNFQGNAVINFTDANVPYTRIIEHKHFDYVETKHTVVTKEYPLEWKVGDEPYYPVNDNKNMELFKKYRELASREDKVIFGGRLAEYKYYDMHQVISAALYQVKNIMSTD
# UniProt P39400: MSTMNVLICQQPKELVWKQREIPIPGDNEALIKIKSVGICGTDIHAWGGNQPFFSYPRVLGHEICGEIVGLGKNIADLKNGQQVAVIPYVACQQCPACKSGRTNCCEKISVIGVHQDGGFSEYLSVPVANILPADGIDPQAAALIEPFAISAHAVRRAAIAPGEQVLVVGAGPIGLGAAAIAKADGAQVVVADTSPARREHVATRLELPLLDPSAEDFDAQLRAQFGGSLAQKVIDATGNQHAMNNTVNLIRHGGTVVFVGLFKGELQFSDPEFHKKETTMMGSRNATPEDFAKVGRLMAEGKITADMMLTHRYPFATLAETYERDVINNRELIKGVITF
# The list shows a part of the results. Small differences around the control level are noise.
# Compound: CC1(C)S[C@@H]2[C@H](NC(=O)[C@H](N)c3ccccc3)C(=O)N2[C@H]1C(=O)O [ampicillin]
# Experiment: log2 fold change of tryptic peptide abundance, ligand vs vehicle (limited proteolysis) (log2 ratio); higher = more trypsin-susceptible (destabilized)
# Details: ligand concentration: 10 uM; sample: E. coli crude lysate
row,Target,log2 fold change
1,"UniProt P39829 (peptide sequence: SAIVEVLSPGQR, peptide start residue: 393)",-0.811
2,"UniProt P37744 (peptide sequence: YGVVEFDKNGTAISLEEKPLEPK, peptide start residue: 146)",0.171
3,"UniProt P37631 (peptide sequence: FTQWDFIDLVNKHGIAWHEK, peptide start residue: 77)",0.14
4,"UniProt P38521 (peptide sequence: CTEEHQAIVRK, peptide start residue: 77)",0.141
5,"UniProt P37095 (peptide sequence: LMIIDWVR, peptide start residue: 104)",-0.425
6,"UniProt P39274 (peptide sequence: KIIPLCPFAKHEFDK, peptide start residue: 67)",0.563
7,"UniProt P39208 (peptide sequence: RAGHFMPVALLK, peptide start residue: 119)",-0.321
8,"UniProt P45523 (peptide sequence: YMENSLKEQEKLGIK, peptide start residue: 59)",-0.302
9,"UniProt P39337 (peptide sequence: LALMAMEQAR, peptide start residue: 108)",0.198
10,"UniProt P37747 (peptide sequence: EYPLEWK, peptide start residue: 298)",-0.183
11,"UniProt P39400 (peptide sequence: VLGHEICGEIVGLGK, peptide start residue: 59)",0.349

# Two records picked at random from the list so far:
row,Target,log2 fold change
6,"UniProt P39274 (peptide sequence: KIIPLCPFAKHEFDK, peptide start residue: 67)",0.563
2,"UniProt P37744 (peptide sequence: YGVVEFDKNGTAISLEEKPLEPK, peptide start residue: 146)",0.171
